Data reported in PMC5102403.
These are yes or no findings as the source states them, for the method shown. In cells and extracts the contact can be indirect. A yes stands for co-enrichment or nearness to the bait. Other partners may have been found.

Chains of the proteins cited; added tags and fusions are not shown.
UniProt P97929: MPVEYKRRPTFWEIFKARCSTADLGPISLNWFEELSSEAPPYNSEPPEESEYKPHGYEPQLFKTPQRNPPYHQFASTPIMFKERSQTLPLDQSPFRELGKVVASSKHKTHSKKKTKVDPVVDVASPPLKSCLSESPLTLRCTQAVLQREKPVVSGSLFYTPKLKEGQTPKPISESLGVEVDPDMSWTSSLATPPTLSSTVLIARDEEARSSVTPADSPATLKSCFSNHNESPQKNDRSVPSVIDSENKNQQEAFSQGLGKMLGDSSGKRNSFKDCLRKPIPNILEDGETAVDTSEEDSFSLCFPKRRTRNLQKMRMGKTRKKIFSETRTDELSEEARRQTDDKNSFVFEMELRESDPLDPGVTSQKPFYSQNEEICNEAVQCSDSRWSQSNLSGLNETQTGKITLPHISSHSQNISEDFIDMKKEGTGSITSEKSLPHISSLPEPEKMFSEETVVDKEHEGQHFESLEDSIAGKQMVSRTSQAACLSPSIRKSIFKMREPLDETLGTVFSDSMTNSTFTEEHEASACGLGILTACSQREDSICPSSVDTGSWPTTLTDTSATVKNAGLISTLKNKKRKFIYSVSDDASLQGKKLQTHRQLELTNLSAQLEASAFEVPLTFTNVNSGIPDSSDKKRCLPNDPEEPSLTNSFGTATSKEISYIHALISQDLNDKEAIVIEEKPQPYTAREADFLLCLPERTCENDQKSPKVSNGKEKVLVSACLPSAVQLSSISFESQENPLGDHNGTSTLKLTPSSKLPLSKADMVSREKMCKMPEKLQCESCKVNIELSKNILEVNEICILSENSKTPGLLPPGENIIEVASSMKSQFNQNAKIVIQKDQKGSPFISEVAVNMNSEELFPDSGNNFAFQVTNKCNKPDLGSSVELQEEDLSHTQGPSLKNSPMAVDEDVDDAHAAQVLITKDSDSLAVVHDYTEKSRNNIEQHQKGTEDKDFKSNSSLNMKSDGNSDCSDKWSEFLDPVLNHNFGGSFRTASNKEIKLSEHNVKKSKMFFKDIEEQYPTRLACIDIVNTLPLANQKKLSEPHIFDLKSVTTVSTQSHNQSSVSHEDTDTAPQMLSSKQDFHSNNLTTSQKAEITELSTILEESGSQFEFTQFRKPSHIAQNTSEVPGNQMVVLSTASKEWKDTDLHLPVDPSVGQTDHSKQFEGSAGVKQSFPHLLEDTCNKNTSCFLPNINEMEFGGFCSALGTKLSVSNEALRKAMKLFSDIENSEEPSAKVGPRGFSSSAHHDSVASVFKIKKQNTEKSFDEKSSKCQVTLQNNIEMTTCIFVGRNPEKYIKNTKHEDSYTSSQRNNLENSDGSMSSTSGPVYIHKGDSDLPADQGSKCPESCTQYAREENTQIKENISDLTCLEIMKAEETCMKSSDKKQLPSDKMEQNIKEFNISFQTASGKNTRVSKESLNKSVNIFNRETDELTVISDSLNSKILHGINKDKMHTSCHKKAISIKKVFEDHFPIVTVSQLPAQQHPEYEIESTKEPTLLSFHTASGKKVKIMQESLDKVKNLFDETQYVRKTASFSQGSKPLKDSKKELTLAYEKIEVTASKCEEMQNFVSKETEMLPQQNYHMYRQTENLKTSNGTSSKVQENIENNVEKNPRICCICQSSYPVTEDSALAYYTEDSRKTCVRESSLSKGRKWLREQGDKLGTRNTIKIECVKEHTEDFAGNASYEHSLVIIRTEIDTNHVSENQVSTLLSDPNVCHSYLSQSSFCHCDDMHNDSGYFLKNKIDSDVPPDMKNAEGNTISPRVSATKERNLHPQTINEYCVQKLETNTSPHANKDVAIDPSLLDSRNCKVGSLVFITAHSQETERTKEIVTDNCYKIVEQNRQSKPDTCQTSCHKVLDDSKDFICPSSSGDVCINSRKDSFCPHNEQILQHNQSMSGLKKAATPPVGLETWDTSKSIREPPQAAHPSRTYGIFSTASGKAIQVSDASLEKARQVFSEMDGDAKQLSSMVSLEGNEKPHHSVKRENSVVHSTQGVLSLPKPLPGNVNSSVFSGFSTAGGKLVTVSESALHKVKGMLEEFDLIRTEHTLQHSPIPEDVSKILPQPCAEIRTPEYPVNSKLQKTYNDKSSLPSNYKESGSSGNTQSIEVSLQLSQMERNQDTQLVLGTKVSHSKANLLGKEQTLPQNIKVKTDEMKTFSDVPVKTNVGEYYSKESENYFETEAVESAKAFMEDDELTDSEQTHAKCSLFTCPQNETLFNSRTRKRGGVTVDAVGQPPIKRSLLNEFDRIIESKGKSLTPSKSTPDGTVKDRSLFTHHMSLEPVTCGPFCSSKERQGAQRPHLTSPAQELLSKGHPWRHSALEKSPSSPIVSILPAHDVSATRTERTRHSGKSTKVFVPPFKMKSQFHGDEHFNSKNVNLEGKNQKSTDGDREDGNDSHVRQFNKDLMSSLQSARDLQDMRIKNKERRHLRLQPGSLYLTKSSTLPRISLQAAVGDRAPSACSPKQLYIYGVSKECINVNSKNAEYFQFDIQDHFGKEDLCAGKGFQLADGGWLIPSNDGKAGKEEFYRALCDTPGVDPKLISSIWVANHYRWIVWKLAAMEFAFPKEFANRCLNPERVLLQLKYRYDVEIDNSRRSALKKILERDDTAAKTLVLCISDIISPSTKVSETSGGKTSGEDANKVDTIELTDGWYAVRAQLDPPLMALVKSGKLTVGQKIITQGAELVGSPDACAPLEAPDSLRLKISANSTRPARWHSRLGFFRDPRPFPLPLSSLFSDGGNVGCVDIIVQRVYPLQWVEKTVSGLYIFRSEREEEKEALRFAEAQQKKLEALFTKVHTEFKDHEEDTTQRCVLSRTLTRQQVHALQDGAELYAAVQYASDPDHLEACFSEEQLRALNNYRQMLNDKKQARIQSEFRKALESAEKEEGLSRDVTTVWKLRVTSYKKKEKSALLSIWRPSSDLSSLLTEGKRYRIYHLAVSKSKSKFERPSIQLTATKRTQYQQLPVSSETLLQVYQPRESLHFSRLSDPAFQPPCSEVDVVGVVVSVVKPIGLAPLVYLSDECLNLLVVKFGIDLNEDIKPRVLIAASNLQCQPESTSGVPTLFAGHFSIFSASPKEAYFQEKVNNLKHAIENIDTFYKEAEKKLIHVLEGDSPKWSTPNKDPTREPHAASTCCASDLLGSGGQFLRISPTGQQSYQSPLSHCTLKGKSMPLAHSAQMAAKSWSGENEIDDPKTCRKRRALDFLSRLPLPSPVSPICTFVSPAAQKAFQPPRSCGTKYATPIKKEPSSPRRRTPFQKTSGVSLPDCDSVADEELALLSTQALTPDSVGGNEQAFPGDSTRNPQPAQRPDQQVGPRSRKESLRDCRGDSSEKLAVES
UniProt Q8CGW9: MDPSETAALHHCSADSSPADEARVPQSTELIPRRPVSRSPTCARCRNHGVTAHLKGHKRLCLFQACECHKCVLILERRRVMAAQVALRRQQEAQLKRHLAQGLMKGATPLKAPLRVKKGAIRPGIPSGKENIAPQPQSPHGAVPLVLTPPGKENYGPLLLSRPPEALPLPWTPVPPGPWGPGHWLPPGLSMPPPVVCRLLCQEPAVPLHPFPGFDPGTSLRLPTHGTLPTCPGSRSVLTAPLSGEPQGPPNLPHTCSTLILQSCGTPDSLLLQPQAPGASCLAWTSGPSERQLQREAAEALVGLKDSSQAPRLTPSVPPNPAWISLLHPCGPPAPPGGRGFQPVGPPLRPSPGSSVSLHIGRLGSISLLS
UniProt P51960: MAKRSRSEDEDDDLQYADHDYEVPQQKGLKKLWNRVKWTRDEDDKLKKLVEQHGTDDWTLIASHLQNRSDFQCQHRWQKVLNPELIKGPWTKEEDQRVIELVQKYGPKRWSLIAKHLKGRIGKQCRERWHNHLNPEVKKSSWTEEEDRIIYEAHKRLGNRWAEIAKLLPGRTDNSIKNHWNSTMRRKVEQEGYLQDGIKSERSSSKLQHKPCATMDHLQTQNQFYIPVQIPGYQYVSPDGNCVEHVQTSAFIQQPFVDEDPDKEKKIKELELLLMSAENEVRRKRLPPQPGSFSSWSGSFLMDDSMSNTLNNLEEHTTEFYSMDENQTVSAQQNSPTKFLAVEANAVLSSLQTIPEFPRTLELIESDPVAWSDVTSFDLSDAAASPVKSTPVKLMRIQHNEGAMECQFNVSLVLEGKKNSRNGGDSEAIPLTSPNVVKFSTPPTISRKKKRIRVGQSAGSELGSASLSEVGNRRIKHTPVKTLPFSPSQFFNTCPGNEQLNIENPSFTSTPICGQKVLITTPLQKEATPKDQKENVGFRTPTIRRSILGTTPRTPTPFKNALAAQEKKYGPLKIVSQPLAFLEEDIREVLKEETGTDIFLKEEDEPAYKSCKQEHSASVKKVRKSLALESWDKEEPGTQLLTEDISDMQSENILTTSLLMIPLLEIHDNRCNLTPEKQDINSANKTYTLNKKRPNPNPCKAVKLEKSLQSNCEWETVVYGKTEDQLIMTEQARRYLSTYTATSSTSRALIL

Assays:
[1] = target: tagged (Flag-HA) cyclin E1 of knock-in mice, end of the tag not told for the experiment or an about 1:1 mixture of the N- and C-terminally tagged forms (mouse) (UniProt Q61457); experiment: affinity purification with mass spectrometry; sequential immunoaffinity purification (anti-Flag M2 agarose, Flag peptide elution, then anti-HA 12CA5 beads) from embryonic brains, adult brains, spleens, thymuses and testes, about 1:1 mixture of organs of N- and C-tagged cyclin E1 knock-in mice; LC-MS/MS, 6-10 runs per organ; mock purifications from wild-type mice subtracted
[2] = target: N-terminally Flag- and HA-tagged cyclin E1 (cyclin E1^Ntag knock-in allele) (mouse) (UniProt Q61457); experiment: affinity purification with mass spectrometry; sequential anti-Flag and anti-HA purification from spleens and thymuses of cyclin E1 Ntag/Ntag and Cdk2-/-/cyclin E1 Ntag/Ntag mice, iTRAQ labelling and quantitative LC-MS

Row | binding [1] | binding [2] | Substance
1 | binds | – | Brca2, mouse (from UniProt P97929 1-3329)
2 | binds | binds | Cdk5, mouse (from UniProt P49615 1-292) (enzyme)
3 | binds | – | Dmrtc2, mouse (endogenous) (from UniProt Q8CGW9 1-370)
4 | binds | – | Mybl1, mouse (endogenous) (from UniProt P51960 1-751)
